Residue numbers refer to the chain shown, from its start. These are yes or no findings as the source states them, for the method shown. Some results given as binding are weak or reduced against the parent protein; the word gives no strength.
B1: h#11B7-T2 (antibody, human IgG1, kappa, V domains shown)
VH: QIQLQESGPGLVKPSQTLSLTCAVSGYSITSNYWGWIRQPPGKGLEWMGYITYSGSTSYNPSLKSRISISVDTSKNQFSLKLSSVTAADTAVYYCAITTFYYWGQGTLVTVSS
VL: DIQMTQSPSSLSASVGDRVTITCRASQDIGNYLRWFQQKPGKAPKLMISGATNLAAGVPSRFSGTGSGTDYTFTISSLQPEDFATYYCLQSKESPWTFGGGTKVEIKR
B2: h#11B7-T3 (antibody, human IgG1, kappa, V domains shown)
VH: B1 VH with I2V, Q39K, K43D, S70T, V71R
VL: B1 VL with T65S, G66R, T69S, F73L
B3: h#11B7-T7 (antibody, human IgG1, kappa, V domains shown)
VH: B1 VH with I2V, Q16E, A23T, M48I, I67V, V71R
VL: B1 VL with F36Y, T65S, T69S, F73L, G100Q
B4: h#11B7-T8 (antibody, human IgG1, kappa, V domains shown)
VH: B1 VH with I2V, Q16E, A23T, M48I, I67V, V71R
VL: B1 VL with M47L, T65S, T69S, F73L, G100Q
B5: h#11B7-T9 (antibody, human IgG1, kappa, V domains shown)
VH: B1 VH with I2V, Q16E, A23T, M48I, I67V, V71R
VL: B1 VL with T65S, T69S, Y71F, F73L, G100Q
B6: h#11B7-T10 (antibody, human IgG1, kappa, V domains shown)
VH: B1 VH with I2V, Q16E, A23T, M48I, I67V, V71R
VL: B1 VL with F36Y, M47L, T65S, T69S, F73L, G100Q
B7: h#11B7-T11 (antibody, human IgG1, kappa, V domains shown)
VH: B1 VH with I2V, Q16E, A23T, M48I, I67V, V71R
VL: B1 VL with M47L, T65S, T69S, Y71F, F73L, G100Q
B8: h#11B7-T12 (antibody, human IgG1, kappa, V domains shown)
VH: B1 VH with I2V, Q16E, A23T, M48I, I67V, V71R
VL: B1 VL with F36Y, T65S, T69S, Y71F, F73L, G100Q
B9: h#11B7-T13 (antibody, human IgG1, kappa, V domains shown)
VH: B1 VH with I2V, Q16E, A23T, M48I, I67V, V71R
VL: B1 VL with F36Y, M47L, T65S, T69S, Y71F, F73L, G100Q
B10: h#11B7-T14 (antibody, human IgG1, kappa, V domains shown)
VH: B1 VH with I2V, Q16E, A23T, S68T, V71R
VL: B1 VL with F36Y, T65S, T69S, F73L, G100Q
B11: h#11B7-T15 (antibody, human IgG1, kappa, V domains shown)
VH: B1 VH with I2V, Q16E, A23T, S68T, V71R
VL: B1 VL with M47L, T65S, T69S, F73L, G100Q
B12: h#11B7-T16 (antibody, human IgG1, kappa, V domains shown)
VH: B1 VH with I2V, Q16E, A23T, S68T, V71R
VL: B1 VL with T65S, T69S, Y71F, F73L, G100Q
B13: h#11B7-T17 (antibody, human IgG1, kappa, V domains shown)
VH: B1 VH with I2V, Q16E, A23T, S68T, V71R
VL: B1 VL with F36Y, M47L, T65S, T69S, F73L, G100Q
B14: h#11B7-T18 (antibody, human IgG1, kappa, V domains shown)
VH: B1 VH with I2V, Q16E, A23T, S68T, V71R
VL: B1 VL with M47L, T65S, T69S, Y71F, F73L, G100Q
B15: h#11B7-T19 (antibody, human IgG1, kappa, V domains shown)
VH: B1 VH with I2V, Q16E, A23T, S68T, V71R
VL: B1 VL with F36Y, T65S, T69S, Y71F, F73L, G100Q
B16: h#11B7-T20 (antibody, human IgG1, kappa, V domains shown)
VH: B1 VH with I2V, Q16E, A23T, S68T, V71R
VL: B1 VL with F36Y, M47L, T65S, T69S, Y71F, F73L, G100Q
B17: h#11B7-T21 (antibody, human IgG1, kappa, V domains shown)
VH: B1 VH with I2V, Q16E, A23T, M48I, I67V, S68T, V71R
VL: B1 VL with F36Y, T65S, T69S, F73L, G100Q
B18: h#11B7-T22 (antibody, human IgG1, kappa, V domains shown)
VH: B1 VH with I2V, Q16E, A23T, M48I, I67V, S68T, V71R
VL: B1 VL with M47L, T65S, T69S, F73L, G100Q
B19: h#11B7-T23 (antibody, human IgG1, kappa, V domains shown)
VH: B1 VH with I2V, Q16E, A23T, M48I, I67V, S68T, V71R
VL: B1 VL with T65S, T69S, Y71F, F73L, G100Q
B20: h#11B7-T24 (antibody, human IgG1, kappa, V domains shown)
VH: B1 VH with I2V, Q16E, A23T, M48I, I67V, S68T, V71R
VL: B1 VL with F36Y, M47L, T65S, T69S, F73L, G100Q
B21: h#11B7-T25 (antibody, human IgG1, kappa, V domains shown)
VH: B1 VH with I2V, Q16E, A23T, M48I, I67V, S68T, V71R
VL: B1 VL with M47L, T65S, T69S, Y71F, F73L, G100Q
B22: h#11B7-T26 (antibody, human IgG1, kappa, V domains shown)
VH: B1 VH with I2V, Q16E, A23T, M48I, I67V, S68T, V71R
VL: B1 VL with F36Y, T65S, T69S, Y71F, F73L, G100Q
B23: chimeric anti-AXL antibody ch11D5-IgG1 (antibody, V domains shown)
VH: EVQLQESGPGLVKPSQSLSLTCSVTGYSITSNYWGWIRKFPGNKMEWIGHITNSGNTTYNPSLKSRISISRDTSRNQFFLQLNSVTTEDTATYYCAKGAFDYWGQGVMVTVSS
VL: DIQMTQSPSSMSTSLGDRVTITCRASQDIGNYLSWFQQKVGKSPRRMIYGAIKLAVGVPSRFSGSRSGSDYSLTISSLESEDMAIYYCLQYIQFPLTFGSGTKLELKR
notes: also called chm11D5; human chimeric antibody (of #11D5)
B24: h#11D5-T4 (antibody, human IgG1, kappa, V domains shown)
VH: QVQLQQWGAGLLKPSETLSLTCTVSGYSITSNYWGWIRQPPGKGLEWIGHITNSGNTTYNPSLKSRVTISRDTSKNQFSLKLSSVTAADTAVYYCAKGAFDYWGQGTLVTVSS
VL: DIQMTQSPSSLSASVGDRVTITCRASQDIGNYLSWYQQKPGKAPKRLIYGAIKLAVGVPSRFSGSGSGTEFTLTISSLQPEDFATYYCLQYIQFPLTFGGGTKVEIKR
B25: chimeric anti-AXL antibody ch11B7-IgG1 (antibody, V domains shown)
VH: EVQLQESGPGLVKPSQSLSLTCSVTGYSITSNYWGWIRKFPGDKMEWMGYITYSGSTSYNPSLKSRISITRDTSKNQFFLQLNSVTSEDTATYYCAITTFYYWGQGVMVTVSS
VL: DIQMTQAPSSLPASLGDRVTITCRASQDIGNYLRWFQQKPGKSPRLMISGATNLAAGVPSRFSGSRSGSDYSLTISSLESEDMADYYCLQSKESPWTFGGGTKLELKR
notes: Rat 11B7 variable domains on human IgG1 / human kappa; also called chm11B7; chimeric anti-AXL mAb #11B7
B26: h#11B7-T1 (antibody, human IgG1, kappa, V domains shown)
VH: B1 VH with M48I, I67V, S68T
VL: B1 VL with F36Y, M47L, Y71F

By UniProt entry, the sequences of proteins in these tests, tags left out. Where a name states a change or a piece, a line headed by the entry shows the natural chain unless it says otherwise.
UniProt P30530: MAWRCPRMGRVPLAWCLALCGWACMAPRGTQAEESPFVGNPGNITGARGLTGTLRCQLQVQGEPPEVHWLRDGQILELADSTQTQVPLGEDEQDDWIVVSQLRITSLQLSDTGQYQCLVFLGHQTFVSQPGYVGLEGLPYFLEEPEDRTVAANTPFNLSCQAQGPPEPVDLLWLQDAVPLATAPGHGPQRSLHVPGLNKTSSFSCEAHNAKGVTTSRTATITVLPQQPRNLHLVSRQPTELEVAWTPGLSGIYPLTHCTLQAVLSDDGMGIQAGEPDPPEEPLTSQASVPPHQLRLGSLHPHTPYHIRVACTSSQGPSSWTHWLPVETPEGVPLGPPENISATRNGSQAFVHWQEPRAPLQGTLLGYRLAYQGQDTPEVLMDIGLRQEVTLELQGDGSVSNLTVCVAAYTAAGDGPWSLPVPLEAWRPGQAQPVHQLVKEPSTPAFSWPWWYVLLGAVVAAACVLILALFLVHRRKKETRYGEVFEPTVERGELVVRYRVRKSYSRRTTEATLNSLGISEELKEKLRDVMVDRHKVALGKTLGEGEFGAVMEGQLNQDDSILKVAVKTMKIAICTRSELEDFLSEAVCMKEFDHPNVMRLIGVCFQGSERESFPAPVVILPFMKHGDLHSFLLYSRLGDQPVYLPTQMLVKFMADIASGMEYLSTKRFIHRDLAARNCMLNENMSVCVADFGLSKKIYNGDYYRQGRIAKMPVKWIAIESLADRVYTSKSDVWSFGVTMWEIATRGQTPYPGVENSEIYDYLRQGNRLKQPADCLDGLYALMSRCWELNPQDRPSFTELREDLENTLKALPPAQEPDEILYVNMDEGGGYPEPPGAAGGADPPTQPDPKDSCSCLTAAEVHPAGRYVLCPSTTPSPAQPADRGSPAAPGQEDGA

How the values were obtained:
[1] = target: Human AXL-Fc (R&D Systems, #154-AL) (human) (UniProt P30530); assay: ELISA, human AXL-Fc coated plate, 1 µg/ml to 0.00256 ng/ml antibody
[2] = target: Human AXL-Fc (R&D Systems, #154-AL) (human) (UniProt P30530); assay: ELISA, human AXL-Fc coated plate; reference antibody

Binder | binding [1] | binding [2]
B1 | binds | 
B2 | binds | 
B3 | binds | 
B4 | binds | 
B5 | binds | 
B6 | binds | 
B7 | binds | 
B8 | binds | 
B9 | binds | 
B10 | binds | 
B11 | binds | 
B12 | binds | 
B13 | binds | 
B14 | binds | 
B15 | binds | 
B16 | binds | 
B17 | binds | 
B18 | binds | 
B19 | binds | 
B20 | binds | 
B21 | binds | 
B22 | binds | 
B23 |  | binds
B24 | binds | 
B25 |  | binds
B26 | binds | 
